Assay: Broth in test tubes, sterile control (substrate without inoculum)
Set-up: key: positive (pink colour); negative (yellow colour)
Conditions: NB, TBB, 0.1 mM, 37° C., 16 hours

COC(=O)[C@H]1O[C@@H](Oc2ccc3nc4ccc(=O)cc-4oc3c2)[C@H](O)[C@@H](O)[C@@H]1O [Resorufin-beta-D-glucuronic acid methyl ester]
Result, colour scored visually: negative
